# Source: PubChem BioAssay AID1347423 (Functional Genomics Laboratory (NCATS/FGL), 2020)
# Hit rate of the full screen: of about 52,000 sequences, about 210 (0.4%) were called active.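 How the source made its calls: active means gene whose silencing raises cell survival under the drug, median off-target-corrected z-score across its silencing RNAs 2 or more; inactive means the rest.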 The list shows a part of the results.
# Assay: Resistance to Poly (ADP-Ribose) Polymerase inhibitor: Gene Identification via Genome-wide siRNA Screen
# Details: mouse BRCA2 R2336H ES cells, olaparib, CellTiter-Glo viability; hits give high values
# Procedure, shortened: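 Genome-wide siRNA screen (3 siRNAs/gene, 20 nM) in mouse ES cells carrying hypomorphic BRCA2 R2336H; olaparib 500 nM added 48 h post-transfection, CellTiter-Glo viability 72 h later. Normalized to plate-median negative control; MAD z-scores, gene median, seed-adjusted.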
row,Sequence,z-score
1,GGGAAGCAACAGUAAACAUTT against 2310043N13Rik,inactive: 1.78
2,GGUUGUGAUAUUAGGUCCGTT against 1190002A17Rik,inactive: 0.788
3,CGAGGUACAUCCCAAGCAATT against Ptk9l,inactive: 0.544
4,GGUACAAACUCUCCCUAGATT against Ube2c,inactive: -1.45
5,GGUACUCUGAAAAGAUCGCTT against LOC240549,inactive: 1.6
6,CCAAGGUACUACUGGGAGATT against Sval3,inactive: -1.88
7,GCUGUGAAAACGCAGUUACTT against 2900054P12Rik,inactive: 0.221
8,CGAAAUGGACUUCAACUUCTT against Foxo6,inactive: -0.445
9,GGAAAAUGCUGUCCAGUGGTT against Rdh11,inactive: 0.345
10,GGUAUUGGUUUCAUCCACCTT against Impdh2,inactive: -0.768
11,UCUGUUUCUAACAAGUGCATT against Taar7e,inactive: -1.09
12,GCAAACUCGGACUUUCAAATT against Map2k1ip1,inactive: -1.66
13,GGCUAAGUGUGGAAUAGUUTT against 4933427D06Rik,inactive: -0.641
14,GGAUCUUGGCUAAAGAGGGTT against Slc25a25,inactive: -0.00305
15,GGUUCAGCACAAAGAAACATT against Rapgef5,inactive: -0.945
16,GCCUCAAUUCCUCUACGCUTT against Sytl1,inactive: 1.48
17,GGGACUCAACGCACUUUCUTT against Ambn,inactive: -2.19
18,GGAUGGAUCAUCUUUUCUATT against Nme2,inactive: -0.561
19,GGAAGCAGUAUCUCGGAAATT against Slc4a1ap,inactive: 0.386
20,GGUAUCAGGUACCAACGACTT against Cpne6,inactive: 1.14
21,GGACGGAAUCAGGAACAUUTT against Echdc3,inactive: 2.31
22,GCCGCACCGAAAGUGAAAUTT against Copz2,inactive: -0.192
23,GGACGUGCUUCCGAAUAGUTT against Scn1a,inactive: 1.2
24,GCUCCUGUACAGUUCAAACTT against Mrpl17,inactive: 0.265
25,GGAUAUCUUCUCCUAUUUUTT against 1200014J11Rik,inactive: -0.0433
26,CCCUCAGGACACGUUUUAGTT against 2610014F08Rik,inactive: 0.929
27,UAUUGUGGACCCAACAGGATT against Olfr1337,inactive: -0.17
28,GGUAUUGAUCAAUAUGACATT against Ddx46,inactive: 0.141

# An excerpt of these results, tab-delimited:
row	Sequence	z-score
8	CGAAAUGGACUUCAACUUCTT against Foxo6	inactive: -0.445
9	GGAAAAUGCUGUCCAGUGGTT against Rdh11	inactive: 0.345
